The target of this assay is T1, human galanin receptor type 1 (human) (UniProt P47211).
T1 sequence (looked up): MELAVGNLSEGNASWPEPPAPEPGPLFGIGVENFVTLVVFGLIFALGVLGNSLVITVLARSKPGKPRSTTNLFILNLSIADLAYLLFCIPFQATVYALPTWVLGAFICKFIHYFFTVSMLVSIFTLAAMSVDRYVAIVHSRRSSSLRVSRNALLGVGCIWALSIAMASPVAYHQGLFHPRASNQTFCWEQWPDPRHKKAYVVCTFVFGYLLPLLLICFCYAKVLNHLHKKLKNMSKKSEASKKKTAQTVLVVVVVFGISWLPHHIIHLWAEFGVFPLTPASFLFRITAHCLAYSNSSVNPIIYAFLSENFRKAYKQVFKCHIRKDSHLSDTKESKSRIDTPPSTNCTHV
Put plainly: GalR1 receptor binding assay (radioligand competition).

No constants are given. Whether binding was seen depends on the method and setting. Some entries that bind do so weakly or less than the wild type.

For ASAGLWSPAKEKRGWTLNSAGYLLGPHAVGNHRSFSDKNGLTS, the binding result is “binds”.

The values are drawn from patent US20120021039A1.
